{"source": "patent US20060222716A1", "about": "“Colloidal solid lipid vehicle for pharmaceutical use” (priority 2005, published 2006)", "assay": "Drug inclusion (antibiotic association with the colloidal delivery system) by ultrafiltration and HPLC", "type": "physicochemical", "settings": "rifampicin; 'may reach'", "note": "At least one compound was matched to its structure with a doubt left."}
{"smiles": "CO[C@H]1/C=C/O[C@@]2(C)Oc3c(C)c(O)c4c(O)c(c(/C=N/N5CCN(C)CC5)c(O)c4c3C2=O)NC(=O)/C(C)=C\\C=C\\[C@H](C)[C@H](O)[C@@H](C)[C@@H](O)[C@@H](C)[C@H](OC(C)=O)[C@@H]1C", "note": "[rifampicin, Rifampicin]", "values": [{"measurement": "incorporation into the solid lipid colloidal delivery system", "value": "98-99%"}]}
